Source: PubChem BioAssay AID1508597 (Cure First, 2020)

Purpose: 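Survival screen with siRNA in ovarian cancer cells derived from patients, with or without rucaparib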 (primary screen)
Cell system: human ovarian carcinoma lines grown from tumours: OCI-P5x (papillary serous) and OCI-C5x (clear cell)
Reagent: siRNA pool against human genes, 1.25 pmol siRNA per well
Time to read-out: 72 h or 96 h, depending on the cell culture
Treatment: rucaparib 20 µM (about IC30) or vehicle, present until read-out
Rucaparib or vehicle: Rucaparib
Cell line: OCI-C5x (clear cell)
Measurement: 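ATP luminescence measured at 72 or 96 h according to the culture, then normalised and expressed as percent viability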
Direction: viability, normalised: higher = more viable cells remaining
Rule for the call: 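Active when normalised viability falls below 80 percent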
Meaning of the calls: active = viability under 80%; inactive = viability 80% or more
Shown is an unselected part of the about 2,100 reagents, in one setting of the screen. 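Calls flag viability under 80% in either arm, not effects specific to rucaparib; the reference for percent is not stated.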 Reagent sequences are not shown. The record does not give: the 100% reference.

For DICER1, technical replicate 1 the deposit lists viability, normalised (%) = 66.4; active. With DICER1, technical replicate 2 the deposit lists viability, normalised (%) = 64.1; active. With DICER1, technical replicate 3, the entry reads viability, normalised (%) = 64.4; active. L3MBTL4, technical replicate 1 scored viability, normalised (%) = 41.6; active. L3MBTL4, technical replicate 2 showed viability, normalised (%) = 40.6; active. With L3MBTL4, technical replicate 3, the values are viability, normalised (%) = 38; active.

For PIF1, technical replicate 1, the entry reads viability, normalised (%) = 49.2; active. For PIF1, technical replicate 2 the deposit lists viability, normalised (%) = 55.9; active. For PIF1, technical replicate 3 the deposit lists viability, normalised (%) = 39.7; active. PCK2, technical replicate 1 gave viability, normalised (%) = 59.9; active. For PCK2, technical replicate 2 the deposit lists viability, normalised (%) = 57.1; active. PCK2, technical replicate 3 showed viability, normalised (%) = 70.9; active.

SLIT1, technical replicate 1 gave viability, normalised (%) = 36.9; active. For SLIT1, technical replicate 2, the entry reads viability, normalised (%) = 40.4; active. For SLIT1, technical replicate 3, the entry reads viability, normalised (%) = 41; active. With KTI12, technical replicate 1, the values are viability, normalised (%) = 48.5; active. For KTI12, technical replicate 2, the entry reads viability, normalised (%) = 43.1; active. For KTI12, technical replicate 3, the entry reads viability, normalised (%) = 49.9; active.

For KLF6, technical replicate 1 the deposit lists viability, normalised (%) = 56.7; active. KLF6, technical replicate 2 scored viability, normalised (%) = 46.7; active. For KLF6, technical replicate 3, the values are viability, normalised (%) = 40.7; active.

A run of entries of the results above, as a working copy:
DICER1, technical replicate 1: viability, normalised (%) = 66.4; outcome = active
DICER1, technical replicate 2: viability, normalised (%) = 64.1; outcome = active
